These results are taken from patent publication US20160311916A1.

Results are given in words; binding and its absence hold for the method and conditions named. Some binding calls cover weakened binding; strength is not graded here.

Assay [1] has as its target cynomolgus CD40 (cynomolgus monkey) (UniProt G7PG38). Nature of the assay: flow cytometry on HEK cells expressing cynomolgus CD40, compared with empty vector. A general note: Flow cytometry measures light scatter and fluorescence of single cells or particles in a stream.
For assay [2] the target is unchanged. Nature of the assay: cynomolgus cross-reactivity, summary table (Example 5).

B1: antibody 1132/1133 (antibody, V domains shown)
VH: EVQLLESGGGLVQPGGSLRLSCAASGFTFSSYAMSWVRQAPGKGLEWVSGIGSYGGGTYYADSVKGRFTISRDNSKNTLYLQMNSLRAEDTAVYYCARYVNFGMDYWGQGTLVTVSS
VL: DIQMTQSPSSLSASVGDRVTITCRASQSISSYLNWYQQKPGKAPKLLIYAASSLQSGVPSRFSGSGSGTDFTLTISSLQPEDFATYYCQQYGRNPPTFGQGTKLEIK
For the molecule B1, the binding result in assay [1] and in assay [2] was “binds” throughout.

B2: antibody 1150/1151 (antibody, V domains shown)
VH: EVQLLESGGGLVQPGGSLRLSCAASGFTFSSYAMSWVRQAPGKGLEWVSGIGGSSSYTSYADSVKGRFTISRDNSKNTLYLQMNSLRAEDTAVYYCARYYSYHMDYWGQGTLVTVSS
VL: DIQMTQSPSSLSASVGDHVTITCRASQSISSYLNWYQQKPGKAPKLLIYAASSLQSGVPSRFSGSGSGTDFTLTISSLQPEDFATYYCQQYGSAPPTFGQGTKLEIK
For the molecule B2, the binding result in assay [1] and in assay [2] was “binds” each time.
